From patent publication US20150017154A1
Results are given in words; binding and its absence hold for the method and conditions named. Some entries that bind do so weakly or less than the wild type.

Target: canine NGF (canine)
Test: ELISA, CHO supernatant on coated NGF, anti-canine IgG-HRP

B1: caninised anti-NGF antibody comprising the caN-HCB heavy chain and the caN-kLC light chain (antibody)
heavy: EVQLVESGGDLVNPGGTLTLSCVVSGFSLTNNNVNWVRQALGRGLEWVGGVWAGGATDYNSALKSRLTITRDTSKSTVFLKMHSLQSEDTATYYCARDGGYSSSTLYAMDAWGQGTLVTVSSASTTAPSVFPLAPSCGSTSGSTVALACLVSGYFPEPVTVSWNSGSLTSGVHTFPSVLQSSGLYSLSSMVTVPSSRWPSETFTCNVAHPASKTKVDKPVPKRENGRVPRPPDCPKCPAPEMLGGPSVFIFPPKPKDTLLIARTPEVTCVVVDLDPEDPEVQISWFVDGKQMQTAKTQPREEQFNGTYRVVSVLPIGHQDWLKGKQFTCKVNNKALPSPIERTISKARGQAHQPSVYVLPPSREELSKNTVSLTCLIKDFYPPDIDVEWQSNGQQEPESKYRTTPPQLDEDGSYFLYSKLSVDKSRWQRGDTFICAVMHEALHNHYTQESLSHSPGK
light: DIQMTQSPASLSLSQEEKVTITCRASEDIYNALAWYQQKPGQAPKLLIYNTDTLHTGVPSRFSGSGSGTEYSLTINSLESEDVAVYFCQHYFHYPRTFGAGTKVELKRNDAQPAVYLFQPSPDQLHTGSASVVCLLNSFYPKDINVKWKVDGVIQDTGIQESVTEQDKDSTYSLSSTLTMSSTEYLSHELYSCEITHKSLPSTLIKSFQRSECQRVD
binding: binds
